According to the supplement of paper PMC12819154, “High-throughput peptide-centric local stability assay extends protein–ligand identification to membrane proteins, tissues and bacteria” (Nature Structural & Molecular Biology, 2025):
The list shows a part of the results. Small differences around the control level are noise.

Protein sequences, listed by entry. Tags and fused reporters are not part of them. Lines headed by an entry give the natural chain unless they say otherwise; changes in a name come on top.
UniProt Q8BHZ0: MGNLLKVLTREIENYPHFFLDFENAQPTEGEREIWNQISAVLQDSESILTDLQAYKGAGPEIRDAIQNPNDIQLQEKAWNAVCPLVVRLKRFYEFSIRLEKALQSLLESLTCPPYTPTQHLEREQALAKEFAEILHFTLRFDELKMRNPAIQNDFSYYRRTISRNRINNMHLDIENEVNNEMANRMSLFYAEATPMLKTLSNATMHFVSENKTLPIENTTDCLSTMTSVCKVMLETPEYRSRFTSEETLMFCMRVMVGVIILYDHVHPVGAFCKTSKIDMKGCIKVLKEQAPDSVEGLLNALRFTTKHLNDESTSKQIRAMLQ
UniProt Q8BQJ6: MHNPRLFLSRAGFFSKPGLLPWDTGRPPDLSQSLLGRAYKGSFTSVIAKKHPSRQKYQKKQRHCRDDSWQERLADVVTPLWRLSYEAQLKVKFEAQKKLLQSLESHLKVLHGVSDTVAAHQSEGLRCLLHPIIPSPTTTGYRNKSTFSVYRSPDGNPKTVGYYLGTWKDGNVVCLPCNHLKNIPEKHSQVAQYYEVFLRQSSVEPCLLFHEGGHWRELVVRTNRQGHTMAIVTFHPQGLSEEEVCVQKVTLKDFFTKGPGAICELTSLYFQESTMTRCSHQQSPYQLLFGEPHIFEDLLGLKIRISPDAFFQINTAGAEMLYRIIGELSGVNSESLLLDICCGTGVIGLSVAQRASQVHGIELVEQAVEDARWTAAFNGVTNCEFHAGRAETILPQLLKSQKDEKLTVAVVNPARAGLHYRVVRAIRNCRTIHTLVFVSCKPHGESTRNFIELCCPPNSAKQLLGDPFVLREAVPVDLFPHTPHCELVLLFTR
UniProt Q8BJU9: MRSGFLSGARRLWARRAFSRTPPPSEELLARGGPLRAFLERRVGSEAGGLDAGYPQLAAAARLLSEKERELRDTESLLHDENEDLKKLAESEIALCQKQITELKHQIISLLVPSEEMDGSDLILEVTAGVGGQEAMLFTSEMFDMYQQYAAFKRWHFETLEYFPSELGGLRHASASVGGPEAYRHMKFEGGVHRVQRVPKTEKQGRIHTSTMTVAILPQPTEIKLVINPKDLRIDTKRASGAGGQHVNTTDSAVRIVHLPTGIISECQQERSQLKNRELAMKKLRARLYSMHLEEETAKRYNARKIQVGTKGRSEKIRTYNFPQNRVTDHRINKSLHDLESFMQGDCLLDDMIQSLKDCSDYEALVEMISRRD
UniProt Q8BKJ9: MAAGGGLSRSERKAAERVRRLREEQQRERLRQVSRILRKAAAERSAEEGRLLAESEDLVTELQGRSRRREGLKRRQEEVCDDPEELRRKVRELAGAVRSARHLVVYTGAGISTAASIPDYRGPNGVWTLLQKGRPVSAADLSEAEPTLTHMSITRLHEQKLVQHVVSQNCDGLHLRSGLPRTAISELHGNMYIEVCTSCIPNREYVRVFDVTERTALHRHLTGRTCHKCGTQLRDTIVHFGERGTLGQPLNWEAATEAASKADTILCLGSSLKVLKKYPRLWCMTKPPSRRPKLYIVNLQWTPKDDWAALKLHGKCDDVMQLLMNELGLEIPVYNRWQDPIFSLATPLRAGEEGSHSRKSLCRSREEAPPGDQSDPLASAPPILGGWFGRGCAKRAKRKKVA
UniProt Q8BUH1: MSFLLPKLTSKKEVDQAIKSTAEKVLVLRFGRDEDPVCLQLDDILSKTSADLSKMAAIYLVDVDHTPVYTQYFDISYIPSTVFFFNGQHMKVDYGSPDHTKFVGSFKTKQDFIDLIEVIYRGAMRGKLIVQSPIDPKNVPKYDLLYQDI
UniProt Q8BT35: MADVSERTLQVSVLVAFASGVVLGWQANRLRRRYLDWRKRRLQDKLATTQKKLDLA
UniProt Q8BLR9: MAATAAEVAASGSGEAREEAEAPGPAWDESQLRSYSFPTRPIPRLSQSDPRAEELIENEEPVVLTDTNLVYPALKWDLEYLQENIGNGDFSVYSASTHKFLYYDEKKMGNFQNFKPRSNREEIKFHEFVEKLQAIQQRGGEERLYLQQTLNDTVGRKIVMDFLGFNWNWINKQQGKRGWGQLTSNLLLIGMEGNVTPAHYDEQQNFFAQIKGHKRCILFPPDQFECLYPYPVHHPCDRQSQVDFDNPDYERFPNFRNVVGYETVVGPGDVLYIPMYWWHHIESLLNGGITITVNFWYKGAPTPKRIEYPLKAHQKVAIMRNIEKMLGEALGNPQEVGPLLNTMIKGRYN
UniProt Q8BP74: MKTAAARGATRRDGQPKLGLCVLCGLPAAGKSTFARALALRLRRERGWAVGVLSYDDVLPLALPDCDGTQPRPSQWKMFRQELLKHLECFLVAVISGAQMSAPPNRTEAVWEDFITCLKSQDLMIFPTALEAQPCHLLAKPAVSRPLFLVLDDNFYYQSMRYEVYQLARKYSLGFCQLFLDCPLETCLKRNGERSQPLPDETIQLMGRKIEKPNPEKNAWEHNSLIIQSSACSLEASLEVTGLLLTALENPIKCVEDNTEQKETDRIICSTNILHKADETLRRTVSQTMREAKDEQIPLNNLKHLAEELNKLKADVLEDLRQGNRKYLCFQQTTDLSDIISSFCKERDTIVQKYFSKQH
UniProt Q8BJG4: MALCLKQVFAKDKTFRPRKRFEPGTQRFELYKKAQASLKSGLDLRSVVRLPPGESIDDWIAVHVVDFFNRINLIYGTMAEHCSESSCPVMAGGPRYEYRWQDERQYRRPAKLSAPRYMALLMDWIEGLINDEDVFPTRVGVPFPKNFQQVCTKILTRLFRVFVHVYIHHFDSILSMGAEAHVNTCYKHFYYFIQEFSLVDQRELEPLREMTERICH
UniProt Q8BKR5: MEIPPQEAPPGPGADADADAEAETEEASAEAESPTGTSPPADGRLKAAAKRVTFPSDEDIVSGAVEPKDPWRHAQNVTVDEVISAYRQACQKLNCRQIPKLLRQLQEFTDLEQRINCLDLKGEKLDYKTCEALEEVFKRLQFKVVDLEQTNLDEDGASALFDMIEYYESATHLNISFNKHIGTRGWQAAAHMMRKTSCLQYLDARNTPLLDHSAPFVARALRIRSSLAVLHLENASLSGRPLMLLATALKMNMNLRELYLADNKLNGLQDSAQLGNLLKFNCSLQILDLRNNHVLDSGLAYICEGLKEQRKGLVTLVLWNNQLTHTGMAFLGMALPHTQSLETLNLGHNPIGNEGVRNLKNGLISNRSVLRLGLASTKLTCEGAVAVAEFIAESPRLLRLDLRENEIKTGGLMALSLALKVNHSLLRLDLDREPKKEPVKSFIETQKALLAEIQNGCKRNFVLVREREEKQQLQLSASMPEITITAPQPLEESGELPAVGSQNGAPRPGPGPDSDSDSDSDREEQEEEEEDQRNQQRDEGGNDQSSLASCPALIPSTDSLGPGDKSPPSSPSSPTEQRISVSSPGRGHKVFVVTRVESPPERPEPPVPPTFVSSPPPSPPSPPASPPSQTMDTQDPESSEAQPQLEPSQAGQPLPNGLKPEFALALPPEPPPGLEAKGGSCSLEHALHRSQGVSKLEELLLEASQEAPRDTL
UniProt Q8BMI3: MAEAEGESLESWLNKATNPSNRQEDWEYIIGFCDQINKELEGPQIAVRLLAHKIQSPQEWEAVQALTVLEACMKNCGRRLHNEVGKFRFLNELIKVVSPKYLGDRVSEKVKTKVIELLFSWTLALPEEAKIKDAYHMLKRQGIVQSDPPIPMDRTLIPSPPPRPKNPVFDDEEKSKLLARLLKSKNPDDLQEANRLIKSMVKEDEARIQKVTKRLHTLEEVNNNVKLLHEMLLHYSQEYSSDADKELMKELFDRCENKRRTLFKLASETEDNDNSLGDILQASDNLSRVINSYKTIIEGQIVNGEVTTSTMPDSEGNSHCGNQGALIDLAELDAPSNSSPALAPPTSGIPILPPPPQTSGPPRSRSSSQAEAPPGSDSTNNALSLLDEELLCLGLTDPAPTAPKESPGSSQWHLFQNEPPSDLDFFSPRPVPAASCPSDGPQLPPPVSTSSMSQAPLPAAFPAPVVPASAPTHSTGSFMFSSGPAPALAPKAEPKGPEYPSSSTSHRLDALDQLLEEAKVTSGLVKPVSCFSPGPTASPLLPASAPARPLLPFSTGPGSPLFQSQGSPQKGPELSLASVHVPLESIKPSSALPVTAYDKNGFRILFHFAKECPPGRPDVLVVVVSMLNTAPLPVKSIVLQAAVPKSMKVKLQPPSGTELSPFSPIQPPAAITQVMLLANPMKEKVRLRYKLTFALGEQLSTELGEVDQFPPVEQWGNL
UniProt Q8BJ05: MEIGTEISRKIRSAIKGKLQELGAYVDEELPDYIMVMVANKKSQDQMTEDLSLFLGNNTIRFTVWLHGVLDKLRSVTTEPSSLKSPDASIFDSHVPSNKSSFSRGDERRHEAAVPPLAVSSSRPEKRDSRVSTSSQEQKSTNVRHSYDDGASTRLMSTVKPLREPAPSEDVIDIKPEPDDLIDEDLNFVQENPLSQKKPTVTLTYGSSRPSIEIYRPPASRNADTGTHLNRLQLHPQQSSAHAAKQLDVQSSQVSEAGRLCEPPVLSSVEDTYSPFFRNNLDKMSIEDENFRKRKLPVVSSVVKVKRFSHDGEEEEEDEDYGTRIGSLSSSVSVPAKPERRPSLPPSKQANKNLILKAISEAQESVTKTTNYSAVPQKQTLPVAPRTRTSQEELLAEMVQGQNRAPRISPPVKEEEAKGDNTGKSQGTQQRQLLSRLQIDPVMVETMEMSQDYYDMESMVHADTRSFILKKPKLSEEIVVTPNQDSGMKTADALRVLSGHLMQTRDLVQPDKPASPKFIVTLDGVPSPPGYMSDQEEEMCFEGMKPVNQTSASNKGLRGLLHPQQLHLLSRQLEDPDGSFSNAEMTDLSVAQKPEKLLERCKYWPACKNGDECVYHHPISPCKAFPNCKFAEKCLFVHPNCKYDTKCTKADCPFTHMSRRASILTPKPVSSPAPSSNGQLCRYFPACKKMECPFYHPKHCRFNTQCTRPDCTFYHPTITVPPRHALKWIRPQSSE
UniProt Q8BKS9: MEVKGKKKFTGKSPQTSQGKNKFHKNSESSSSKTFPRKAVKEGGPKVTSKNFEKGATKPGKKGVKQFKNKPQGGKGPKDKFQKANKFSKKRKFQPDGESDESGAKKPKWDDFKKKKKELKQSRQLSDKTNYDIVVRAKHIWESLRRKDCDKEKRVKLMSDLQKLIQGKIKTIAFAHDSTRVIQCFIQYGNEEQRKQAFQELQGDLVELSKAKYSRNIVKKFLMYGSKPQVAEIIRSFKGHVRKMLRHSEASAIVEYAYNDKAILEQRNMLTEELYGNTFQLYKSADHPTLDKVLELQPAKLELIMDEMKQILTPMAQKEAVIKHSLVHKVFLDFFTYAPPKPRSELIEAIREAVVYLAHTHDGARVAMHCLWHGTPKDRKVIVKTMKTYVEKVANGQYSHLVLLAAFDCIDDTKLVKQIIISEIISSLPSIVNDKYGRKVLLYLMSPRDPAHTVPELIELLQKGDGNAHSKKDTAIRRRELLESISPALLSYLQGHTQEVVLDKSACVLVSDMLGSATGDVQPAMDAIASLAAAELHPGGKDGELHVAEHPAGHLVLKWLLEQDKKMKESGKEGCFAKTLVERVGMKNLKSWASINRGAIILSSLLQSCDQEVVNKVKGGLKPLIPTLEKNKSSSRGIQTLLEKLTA
UniProt Q8BHY3: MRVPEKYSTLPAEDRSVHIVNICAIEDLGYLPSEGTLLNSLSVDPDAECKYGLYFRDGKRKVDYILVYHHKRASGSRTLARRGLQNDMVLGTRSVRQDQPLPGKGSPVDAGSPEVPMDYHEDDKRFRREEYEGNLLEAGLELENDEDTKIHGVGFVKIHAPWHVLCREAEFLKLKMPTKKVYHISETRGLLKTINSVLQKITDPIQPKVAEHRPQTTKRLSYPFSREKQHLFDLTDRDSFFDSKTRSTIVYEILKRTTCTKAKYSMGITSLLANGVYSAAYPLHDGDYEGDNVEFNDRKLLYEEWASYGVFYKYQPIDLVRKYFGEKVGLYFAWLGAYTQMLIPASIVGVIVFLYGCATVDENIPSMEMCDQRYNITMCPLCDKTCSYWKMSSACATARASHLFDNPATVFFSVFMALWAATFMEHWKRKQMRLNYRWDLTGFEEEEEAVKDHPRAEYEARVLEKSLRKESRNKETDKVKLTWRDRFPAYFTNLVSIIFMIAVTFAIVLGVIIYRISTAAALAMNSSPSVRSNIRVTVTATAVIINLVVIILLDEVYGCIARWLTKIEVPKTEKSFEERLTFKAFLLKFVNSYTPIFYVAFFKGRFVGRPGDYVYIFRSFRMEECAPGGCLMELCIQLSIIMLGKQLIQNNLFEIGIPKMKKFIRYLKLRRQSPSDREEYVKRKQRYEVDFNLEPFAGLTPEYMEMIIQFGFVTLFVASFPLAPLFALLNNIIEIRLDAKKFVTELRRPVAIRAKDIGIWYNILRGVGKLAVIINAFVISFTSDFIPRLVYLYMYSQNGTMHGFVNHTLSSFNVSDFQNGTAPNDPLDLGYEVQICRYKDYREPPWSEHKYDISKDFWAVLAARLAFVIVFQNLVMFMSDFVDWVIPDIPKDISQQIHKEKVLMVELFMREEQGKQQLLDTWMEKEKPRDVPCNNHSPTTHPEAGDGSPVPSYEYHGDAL

Compound: CN[C@@H]1C[C@H]2O[C@@](C)([C@@H]1OC)n1c3ccccc3c3c4c(c5c6ccccc6n2c5c31)C(=O)NC4 [staurosporine]
Test: log2 fold change of tryptic peptide abundance, ligand vs vehicle (limited proteolysis) (log2 ratio); higher = more trypsin-susceptible (destabilized)
Settings: ligand concentration: 20 uM; sample: mouse liver crude lysate; replicate design: treated separately

Row | Target | log2 fold change
1 | UniProt Q8BI72 (peptide sequence: SSSSGSHQDSATSEGDR, peptide start residue: 187) | -0.264
2 | UniProt Q8BPM0 (peptide sequence: NIPQPTNALK, peptide start residue: 602) | -0.23
3 | UniProt Q8BHZ0 (peptide sequence: HLNDESTSK, peptide start residue: 308) | 0.466
4 | UniProt Q8BQJ6 (peptide sequence: VLHGVSDTVAAHQSEGLR, peptide start residue: 109) | 0.46
5 | UniProt Q8BJU9 (peptide sequence: LAESEIALCQK, peptide start residue: 88) | 0.129
6 | UniProt Q8BQ30 (peptide sequence: KDYLEGCGREEEK, peptide start residue: 270) | 0.316
7 | UniProt Q8BU27 (peptide sequence: GSGSSPGATDASR, peptide start residue: 39) | 0.0093
8 | UniProt Q8BQY8 (peptide sequence: IVDLACLNHFTR, peptide start residue: 7) | 0.47
9 | UniProt Q8BJW6 (peptide sequence: APSTPLLTVR, peptide start residue: 2) | -0.535
10 | UniProt Q8BKJ9 (peptide sequence: GPNGVWTLLQK, peptide start residue: 122) | 0.288
11 | UniProt Q8BSQ9 (peptide sequence: LWTMPISSVR, peptide start residue: 1075) | 0.25
12 | UniProt Q8BUH1 (peptide sequence: LIVQSPIDPK, peptide start residue: 128) | 0.0737
13 | UniProt Q8BTM8 (peptide sequence: FNGTHIPGSPFK, peptide start residue: 2406) | 0.482
14 | UniProt Q8BT35 (peptide sequence: RLQDKLATTQK, peptide start residue: 41) | -0.447
15 | UniProt Q8BTZ5 (peptide sequence: IDICNHQGATPLVLAK, peptide start residue: 101) | -0.203
16 | UniProt Q8BI08 (peptide sequence: VTLPAGPDILR, peptide start residue: 22) | -0.00141
17 | UniProt Q8BIY3 (peptide sequence: LGYSQEDVVR, peptide start residue: 13) | 0.00468
18 | UniProt Q8BLR9 (peptide sequence: MGNFQNFKPR, peptide start residue: 108) | 0.326

Row | Target | log2 fold change
19 | UniProt Q8BL95 (peptide sequence: KLSDYVGK, peptide start residue: 203) | 0.0949
20 | UniProt Q8BRH0 (peptide sequence: ILEMDPSNVQGK, peptide start residue: 768) | -1.03
21 | UniProt Q8BTW8 (peptide sequence: LATGPTFQHFLR, peptide start residue: 57) | 0.231
22 | UniProt Q8BP74 (peptide sequence: LKADVLEDLR, peptide start residue: 312) | 0.534
23 | UniProt Q8BMD7 (peptide sequence: EEKQELK, peptide start residue: 842) | 0.234
24 | UniProt Q8BJG4 (peptide sequence: ELEPLREMTER, peptide start residue: 203) | -0.197
25 | UniProt Q8BKR5 (peptide sequence: TCEALEEVFKR, peptide start residue: 129) | 0.14
26 | UniProt Q8BMA6 (peptide sequence: VTEELLTDNR, peptide start residue: 112) | 0.28
27 | UniProt Q8BQP8 (peptide sequence: SSSGLGEFNAR, peptide start residue: 524) | -0.644
28 | UniProt Q8BMI3 (peptide sequence: TLIPSPPPRPK, peptide start residue: 155) | 0.296
29 | UniProt Q8BTJ4 (peptide sequence: SRASTSRPFSR, peptide start residue: 433) | 1.59
30 | UniProt Q8BJ05 (peptide sequence: KMECPFYHPK, peptide start residue: 689) | 0.404
31 | UniProt Q8BKS9 (peptide sequence: FQPDGESDESGAKK, peptide start residue: 93) | -0.331
32 | UniProt Q8BU00 (peptide sequence: MWGVLQK, peptide start residue: 178) | -0.363
33 | UniProt Q8BSF4 (peptide sequence: NLSEFFR, peptide start residue: 161) | 0.278
34 | UniProt Q8BHY3 (peptide sequence: VYHISETR, peptide start residue: 181) | 0.419
35 | UniProt Q8BV66 (peptide sequence: GSITHQILVGCDEDGISDKYR, peptide start residue: 207) | 0.284

3 records drawn at random from those above:
Row | Target | log2 fold change
29 | UniProt Q8BTJ4 (peptide sequence: SRASTSRPFSR, peptide start residue: 433) | 1.59
23 | UniProt Q8BMD7 (peptide sequence: EEKQELK, peptide start residue: 842) | 0.234
25 | UniProt Q8BKR5 (peptide sequence: TCEALEEVFKR, peptide start residue: 129) | 0.14
